From the supplement of paper PMC12889115
This is one part of the list. These are raw signals, not scaled to a control.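 First-pass screen: polymyxin B was added at a level that permeabilizes the Salmonella outer membrane while sparing the inner membrane. DMSO wells, with and without polymyxin B, defined maximum growth. Because plates differed from one another, each plate's data were ranked separately and the compounds with the lowest OD600 were carried forward as hits.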

Test system: Salmonella enterica serovar Typhimurium SL1344
Assay: bacterial growth OD600 after 18 h with compound and polymyxin B; higher = more bacterial growth (less inhibition)
Conditions: 50 µM, Mueller-Hinton broth

SMILES | bacterial growth OD600 (polymyxin B 1 µg/mL) | bacterial growth OD600 (polymyxin B 0.75 µg/mL)
O=C(NCCC1COc2ccccc2O1)c1ccc(OC2CCN(C(=O)C3CC3)CC2)cc1 (stereo not given) | 0.789 | 
O=C(CCC1(Cc2ccccc2)CCC(=O)N1)NCc1ccco1 (stereo not given) |  | 0.878
Cc1c(C(C)NCc2cccc(O)c2)cnn1-c1cccc2ccccc12 (stereo not given) |  | 0.572
O=C(CCCc1ccccc1)Nc1ccnn1C1CCN(C2CCOCC2)CC1 |  | 0.904
CCOc1ccc(CN2CCN(Cc3cccc(F)c3F)CC2CCO)cc1 (stereo not given) | 0.958 | 
O=C1N(Cc2cccc(F)c2F)CCCC1(O)CNCc1ccccc1 (stereo not given) | 0.888 | 
CN(C(=O)C1=CCCC1)C1CCCN(CCc2ccccc2)C1 (stereo not given) | 1.36 | 
O=C(NCCN1CCOC1=O)c1ccc2oc(CCc3ccccc3)nc2c1 | 0.766 | 
O=C(CCc1cnccn1)N(Cc1cccnc1)CC1CCN(C2CCCC2)CC1 | 1.19 | 
Cc1ccccc1CC(=O)NC1CC(=O)N(CCCc2ccccc2)C1 (stereo not given) | 1.13 | 
CCC1CN(CCNC(=O)c2sccc2Cl)Cc2cc(OC)ccc2O1 (stereo not given) |  | 0.715
COc1cc(CC2(CCC(=O)N3CCCC(c4nc5ccccc5o4)C3)CCC(=O)N2)ccc1F (stereo not given) |  | 0.903
CN(Cc1ccc(F)cc1)c1ccc(OCC(=O)N2CCN(c3ncc4ccccc4n3)CC2)nn1 |  | 0.301
COC(=O)c1ccc(CN2CCCC(CO)(Cc3ccccc3F)C2)cc1 (stereo not given) | 1.16 | 
O=C1CCC(CCC(=O)N2CCC(C(O)c3cccs3)CC2)(Cc2ccccc2)N1 (stereo not given) |  | 0.772
COc1ccc(OC2CCN(C(C)=O)CC2)c(C(=O)N2CC[C@@H]3CCCC[C@H]3C2)c1 | 0.585 | 
Cc1occc1C(=O)NC1CC(=O)N(CCCc2ccccc2)C1 (stereo not given) | 0.948 | 
Cc1ccc2c(c1)CN(CC(=O)N1CCC(c3ccncc3)CC1)CC(c1ccsc1)O2 (stereo not given) |  | 0
CCN(CC)C(=O)Cn1cc(C(=O)NCCC(c2ccccc2)c2ccco2)nn1 (stereo not given) | 0.915 | 
CSCCNC(=O)C1CCN(c2nc(C)c3cc(C)c(C)cc3n2)CC1 |  | 0.839
O=C(c1cccc2ccccc12)N1CCCC(Nc2ccccc2)C1 (stereo not given) | 0.936 | 
CC(C)c1ccc(CN2CCCC3(CCN(C(=O)c4cccnc4)C3)C2)cc1 (stereo not given) |  | 0.753
O=C1CCC(CCC(=O)N2CCCC2c2ccc(F)cc2)(Cc2ccc(F)cc2)N1 (stereo not given) |  | 0.858
CC#CCN1C(=O)NC(CCc2ccccc2)(C2CCN(CCC(C)c3ccccc3)CC2)C1=O (stereo not given) |  | 0.742
O=C(C1=CCCCC1)N1CCC2(CCCN(Cc3ccccc3F)C2)C1 (stereo not given) | 0.969 | 
Cc1ncc2c(c1CNS(=O)(=O)N(C)C)CCN(C(=O)c1cc3ccccc3n1C)C2 |  | 0.763
COc1ccccc1N1CCN(c2ncccc2CNC(=O)c2cnc[nH]2)CC1 |  | 0.788
CCOC(=O)C1(CCc2ccccc2)CCN(C(=O)c2ccc(COC)o2)CC1 | 0.602 | 
COc1ccc(CN2C(=O)O[C@@H]3CN(Cc4ccccn4)C[C@@H]32)cc1OC | 1.14 | 
COC(=O)C1CCN(C(=O)c2cc(NC(=O)CC3CCCC3)cc3nc(C4CCCO4)n(C)c23)CC1 (stereo not given) |  | 0.776

Single records, as listed above:
O=C(NCCN1CCOC1=O)c1ccc2oc(CCc3ccccc3)nc2c1 in the list: bacterial growth OD600 (polymyxin B 1 µg/mL): 0.766
CCOc1ccc(CN2CCN(Cc3cccc(F)c3F)CC2CCO)cc1 (stereo not given) in the list: bacterial growth OD600 (polymyxin B 1 µg/mL): 0.958
